Results are given in words; binding and its absence hold for the method and conditions named. Binding seen in cells or lysates may run through a third protein. Some entries that bind do so weakly or less than the wild type.
Target: human TRIM5α (HuTRIM5α) (human) (UniProt Q9C035)
Assay: co-IP; SOCS1 with HuTRIM5α; data not shown; cells not given

By UniProt entry, the sequences of proteins in these tests, tags left out.
UniProt Q9C035: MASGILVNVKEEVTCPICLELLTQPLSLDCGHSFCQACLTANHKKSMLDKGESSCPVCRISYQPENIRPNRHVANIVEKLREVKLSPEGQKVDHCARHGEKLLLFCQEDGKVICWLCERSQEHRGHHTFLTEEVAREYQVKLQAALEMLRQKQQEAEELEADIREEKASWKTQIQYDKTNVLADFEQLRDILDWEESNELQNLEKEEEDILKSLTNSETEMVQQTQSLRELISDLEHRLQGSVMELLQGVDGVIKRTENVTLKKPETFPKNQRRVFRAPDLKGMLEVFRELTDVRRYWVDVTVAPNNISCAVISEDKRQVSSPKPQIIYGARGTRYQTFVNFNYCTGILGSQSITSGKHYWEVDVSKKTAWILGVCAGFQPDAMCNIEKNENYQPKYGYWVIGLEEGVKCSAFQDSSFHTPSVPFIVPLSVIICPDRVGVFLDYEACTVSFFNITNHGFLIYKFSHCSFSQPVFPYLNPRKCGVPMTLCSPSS
UniProt O15524: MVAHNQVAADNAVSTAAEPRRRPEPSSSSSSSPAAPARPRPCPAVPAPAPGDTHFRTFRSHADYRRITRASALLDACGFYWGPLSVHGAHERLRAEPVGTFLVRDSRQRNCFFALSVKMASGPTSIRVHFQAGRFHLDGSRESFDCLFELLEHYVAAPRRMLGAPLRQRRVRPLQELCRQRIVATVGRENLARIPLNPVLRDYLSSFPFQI

“SOCS1 in the co-immunoprecipitation with HuTRIM5α (from UniProt O15524 1-211)” was tested, and the binding was “binds”.

— paper PMC4195675
